According to doi:10.1101/2023.08.16.553481:
No constants are given. Whether binding was seen depends on the method and setting. Binding seen in cells or lysates may run through a third protein. A result given as binding can be weak or reduced; the word gives no strength. Where a sequence is shown, tags or fusion partners need not be part of it.

Molecular target: T1, zTie2-Fc-His (immunoglobulin Fc-domain tagged soluble extracellular domain of zebrafish Tie2) (zebrafish) (UniProt O73791)
T1 sequence: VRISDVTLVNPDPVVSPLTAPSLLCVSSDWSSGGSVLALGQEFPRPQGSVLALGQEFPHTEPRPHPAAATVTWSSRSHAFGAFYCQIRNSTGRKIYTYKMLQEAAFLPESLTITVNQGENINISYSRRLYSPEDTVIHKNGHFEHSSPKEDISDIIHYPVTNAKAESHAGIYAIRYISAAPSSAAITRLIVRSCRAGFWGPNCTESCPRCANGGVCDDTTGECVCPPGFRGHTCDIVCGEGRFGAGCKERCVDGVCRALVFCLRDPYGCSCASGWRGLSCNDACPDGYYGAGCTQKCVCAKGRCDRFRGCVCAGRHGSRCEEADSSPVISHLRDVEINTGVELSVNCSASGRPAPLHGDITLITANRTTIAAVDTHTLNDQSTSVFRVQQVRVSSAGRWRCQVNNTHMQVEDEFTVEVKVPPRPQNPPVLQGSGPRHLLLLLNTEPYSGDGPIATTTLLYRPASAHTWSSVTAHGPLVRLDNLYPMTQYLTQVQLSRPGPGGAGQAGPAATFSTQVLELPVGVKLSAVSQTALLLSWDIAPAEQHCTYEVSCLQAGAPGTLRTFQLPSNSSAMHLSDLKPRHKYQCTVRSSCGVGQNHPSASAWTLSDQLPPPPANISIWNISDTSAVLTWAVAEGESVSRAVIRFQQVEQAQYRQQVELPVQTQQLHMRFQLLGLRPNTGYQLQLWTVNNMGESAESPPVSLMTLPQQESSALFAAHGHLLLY
Assay: pull-down

“FLAG-zAngpt2a (zebrafish Angpt2a without signal sequence) (ligand)” was tested, and the binding was “binds”.
